Data as given in PMC5700975.
Substitutions are numbered along the chain they refer to. Results are given in words; binding and its absence hold for the method and conditions named. Binding seen in cells or lysates may run through a third protein. Some results given as binding are weak or reduced against the parent protein; the word gives no strength. For some assays here: Tags and fused reporters may be left off the sequences shown.

Sequences of proteins named here, by UniProt entry; tags and fusion partners are left off. A change or cut given only in a name is not applied to a line headed by its entry.
UniProt P42336: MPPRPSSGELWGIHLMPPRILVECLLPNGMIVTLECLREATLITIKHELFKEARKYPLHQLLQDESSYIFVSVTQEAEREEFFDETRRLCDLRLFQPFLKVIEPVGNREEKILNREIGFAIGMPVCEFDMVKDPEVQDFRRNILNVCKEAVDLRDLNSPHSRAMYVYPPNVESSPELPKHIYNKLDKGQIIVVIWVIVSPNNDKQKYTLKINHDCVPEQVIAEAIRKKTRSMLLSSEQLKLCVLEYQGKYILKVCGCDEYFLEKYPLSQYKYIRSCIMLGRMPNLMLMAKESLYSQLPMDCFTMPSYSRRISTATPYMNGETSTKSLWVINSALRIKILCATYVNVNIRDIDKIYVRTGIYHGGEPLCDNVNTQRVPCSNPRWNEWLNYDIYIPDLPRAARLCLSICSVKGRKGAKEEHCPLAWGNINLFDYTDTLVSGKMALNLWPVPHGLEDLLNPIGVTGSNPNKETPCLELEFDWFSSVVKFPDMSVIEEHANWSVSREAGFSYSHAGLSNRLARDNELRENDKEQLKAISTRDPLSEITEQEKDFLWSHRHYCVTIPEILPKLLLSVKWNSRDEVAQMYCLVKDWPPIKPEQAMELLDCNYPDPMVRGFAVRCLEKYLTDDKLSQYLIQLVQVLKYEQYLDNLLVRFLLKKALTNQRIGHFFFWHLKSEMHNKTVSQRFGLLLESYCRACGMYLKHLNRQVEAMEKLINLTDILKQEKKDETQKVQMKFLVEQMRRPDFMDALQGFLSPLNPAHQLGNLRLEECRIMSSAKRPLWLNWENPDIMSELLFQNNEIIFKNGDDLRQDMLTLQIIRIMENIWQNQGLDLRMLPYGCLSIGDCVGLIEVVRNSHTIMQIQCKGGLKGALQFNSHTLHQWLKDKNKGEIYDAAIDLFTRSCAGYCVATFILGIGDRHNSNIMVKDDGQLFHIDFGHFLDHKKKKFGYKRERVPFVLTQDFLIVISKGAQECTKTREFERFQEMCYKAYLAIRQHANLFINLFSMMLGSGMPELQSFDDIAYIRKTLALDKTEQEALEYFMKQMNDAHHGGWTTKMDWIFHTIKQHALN
UniProt P42338: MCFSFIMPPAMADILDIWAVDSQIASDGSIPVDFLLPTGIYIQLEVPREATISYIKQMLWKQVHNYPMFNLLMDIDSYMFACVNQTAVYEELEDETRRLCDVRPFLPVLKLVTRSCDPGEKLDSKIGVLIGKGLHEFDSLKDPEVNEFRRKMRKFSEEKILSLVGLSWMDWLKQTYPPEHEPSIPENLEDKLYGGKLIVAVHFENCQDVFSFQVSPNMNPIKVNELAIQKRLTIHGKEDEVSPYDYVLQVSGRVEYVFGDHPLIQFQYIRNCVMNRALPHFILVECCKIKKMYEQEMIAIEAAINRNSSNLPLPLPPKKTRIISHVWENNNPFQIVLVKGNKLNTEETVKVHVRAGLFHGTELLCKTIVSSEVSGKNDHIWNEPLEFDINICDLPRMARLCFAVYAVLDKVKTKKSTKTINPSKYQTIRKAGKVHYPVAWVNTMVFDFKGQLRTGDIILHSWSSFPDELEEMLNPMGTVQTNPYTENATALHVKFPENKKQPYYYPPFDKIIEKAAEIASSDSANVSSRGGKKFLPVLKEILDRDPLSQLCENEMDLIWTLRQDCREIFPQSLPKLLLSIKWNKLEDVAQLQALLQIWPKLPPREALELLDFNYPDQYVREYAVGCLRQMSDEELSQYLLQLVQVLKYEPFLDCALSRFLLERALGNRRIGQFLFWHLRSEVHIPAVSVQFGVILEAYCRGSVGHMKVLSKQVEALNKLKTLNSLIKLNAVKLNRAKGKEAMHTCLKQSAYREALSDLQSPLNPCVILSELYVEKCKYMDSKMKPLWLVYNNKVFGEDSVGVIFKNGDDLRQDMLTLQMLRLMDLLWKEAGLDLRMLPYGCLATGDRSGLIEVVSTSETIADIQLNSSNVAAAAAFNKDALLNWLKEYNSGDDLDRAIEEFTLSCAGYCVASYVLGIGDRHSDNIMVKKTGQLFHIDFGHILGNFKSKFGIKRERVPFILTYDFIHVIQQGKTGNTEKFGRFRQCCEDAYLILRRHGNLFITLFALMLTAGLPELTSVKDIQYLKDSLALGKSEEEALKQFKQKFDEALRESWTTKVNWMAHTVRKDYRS
UniProt P23727: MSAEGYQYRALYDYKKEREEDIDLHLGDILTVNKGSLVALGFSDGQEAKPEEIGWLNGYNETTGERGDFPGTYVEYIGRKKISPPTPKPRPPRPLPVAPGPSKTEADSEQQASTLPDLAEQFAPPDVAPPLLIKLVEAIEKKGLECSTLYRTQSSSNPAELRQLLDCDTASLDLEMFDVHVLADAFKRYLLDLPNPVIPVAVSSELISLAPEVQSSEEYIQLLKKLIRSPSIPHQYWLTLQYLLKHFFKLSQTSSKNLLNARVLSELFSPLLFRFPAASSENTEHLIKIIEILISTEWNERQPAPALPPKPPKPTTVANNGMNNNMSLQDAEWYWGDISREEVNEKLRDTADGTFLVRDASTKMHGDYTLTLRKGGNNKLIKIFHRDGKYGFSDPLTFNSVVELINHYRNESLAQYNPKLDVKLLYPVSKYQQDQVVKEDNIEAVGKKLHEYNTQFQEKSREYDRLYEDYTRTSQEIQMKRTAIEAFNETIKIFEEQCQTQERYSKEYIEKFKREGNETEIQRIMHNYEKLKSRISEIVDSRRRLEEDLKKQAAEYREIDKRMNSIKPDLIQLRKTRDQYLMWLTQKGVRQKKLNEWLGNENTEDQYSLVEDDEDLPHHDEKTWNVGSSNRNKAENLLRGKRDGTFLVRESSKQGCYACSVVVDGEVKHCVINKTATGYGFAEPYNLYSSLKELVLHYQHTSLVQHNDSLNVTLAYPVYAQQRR

What was measured:
Myc3-p110α = Myc3-p110α (UniProt P42336); assay: co-IP; COS-1 cells co-transfected with FLAG-p85 and Myc-p110 or Myc-iSH2-p110; lysates immunoprecipitated with Myc antibody (control mouse IgG), SDS-PAGE, immunoblot
Myc3-p110β (human) = Myc3-p110β (human) (UniProt P42338); assay: as above
[1] = target: Myc3-iSH2-p110β (wild type) (bovine | human) (UniProt P23727+P42338); assay: as above
[2] = target: T1, GST-Rab5 wild-type (canine) (UniProt P18066); assay: pull-down; GST-Rab5 on glutathione Sepharose beads loaded with GDP; incubated with transfected COS-1 lysate containing Myc-iSH2-p110; bound protein detected by anti-Myc immunoblot; only the target purified
T1 sequence: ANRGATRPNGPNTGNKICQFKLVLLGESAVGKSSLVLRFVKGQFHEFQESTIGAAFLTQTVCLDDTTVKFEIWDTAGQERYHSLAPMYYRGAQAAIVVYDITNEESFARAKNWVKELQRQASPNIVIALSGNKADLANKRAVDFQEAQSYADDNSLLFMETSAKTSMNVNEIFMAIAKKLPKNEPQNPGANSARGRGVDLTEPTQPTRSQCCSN

GST-Rab5 E47A (canine) = target: T2, GST-Rab5 E47A (canine) (UniProt P18066); assay: pull-down; GST or GST-Rab5 (wild type or mutant, 10 µg) on glutathione Sepharose beads loaded with GppCp (non-hydrolysable GTP analogue); incubated with transfected COS-1 lysate containing Myc-iSH2-p110; bound protein detected by anti-Myc immunoblot; only the target purified
T2 sequence: T1 sequence with E46A

GST-Rab5 Q44E (canine) = target: T3, GST-Rab5 Q44E (canine) (UniProt P18066); assay: as above
T3 sequence: T1 sequence with Q43E

GST-Rab5 H46A (canine) = target: T4, GST-Rab5 H46A (canine) (UniProt P18066); assay: as above
T4 sequence: T1 sequence with H45A

GST-Rab5 S84A (canine) = target: T5, GST-Rab5 S84A (canine) (UniProt P18066); assay: as above
T5 sequence: T1 sequence with S83A

[3] = target: T1, GST-Rab5 wild-type (canine); assay: as above

FLAG-p85α (from UniProt P23727 1-724)
binding (Myc3-p110α): binds
binding (Myc3-p110β (human)): binds
binding [1]: binds weakly

Myc3-iSH2-p110β (wild type) (from UniProt P23727 466-567; P42338 1-1070)
binding [2]: no binding (condition: GST-Rab5 loaded with GDP)
binding (GST-Rab5 E47A (canine)): binds
binding (GST-Rab5 Q44E (canine)): binds
binding (GST-Rab5 H46A (canine)): binds
binding (GST-Rab5 S84A (canine)): binds
binding [3]: binds

Myc3-iSH2-p110β D239R (from UniProt P23727 466-567; P42338 1-1070)
binding [3]: binds

Myc3-iSH2-p110β L232A (from UniProt P23727 466-567; P42338 1-1070)
binding [3]: binds
